# Some of the results follow. Repeats are few or missing, and single values can be far off.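 The apoptosis fraction was the count of cleaved-PARP antibody-stained nuclei relative to all DNA-stained nuclei, imaged in 1,536-well plates. Screening doses were set so most cells survived, and baseline and induced cleaved-PARP levels vary greatly across cell lines.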
# Test system: A375
# Assay: cleaved PARP positive nuclei fraction relative to DMSO control; melanoma cells; higher = more apoptosis
# Settings: library dose: low library concentration; 72 h
row,SMILES,cleaved PARP positive nuclei fraction [%]
1,"Cc1cc(SCc2sc(-c3ccc(C(F)(F)F)c(F)c3)nc2C)ccc1OCC(=O)O + Cn1cc(/C=C2\C(=O)Nc3cccnc32)c2ccccc21 [GW441756] (first compound 2 µM, partner dose 0.4 µM)",212
2,"CCN(CC)CCCCNc1ncc2cc(-c3cc(OC)cc(OC)c3)c(NC(=O)NC(C)(C)C)nc2n1 + O=C(Oc1ccc([N+](=O)[O-])cc1)N1CCC(C(O)(c2ccc3c(c2)OCO3)c2ccc3c(c2)OCO3)CC1 [JZL184] (first compound 0.1 µM, partner dose 1 µM)",184
3,"O=C(Nc1ccccc1)c1cc([N+](=O)[O-])ccc1Cl + O=C(Oc1ccc([N+](=O)[O-])cc1)N1CCC(C(O)(c2ccc3c(c2)OCO3)c2ccc3c(c2)OCO3)CC1 [JZL184] (first compound 2 µM, partner dose 1 µM)",122
4,"Oc1nc(-c2ccc(C(F)(F)F)cc2)nc2c1CSCC2 + O=C(Oc1ccc([N+](=O)[O-])cc1)N1CCC(C(O)(c2ccc3c(c2)OCO3)c2ccc3c(c2)OCO3)CC1 [JZL184] (first compound 2 µM, partner dose 1 µM)",90.4
5,"C[As](C)SC[C@H](NC(=O)CC[C@H](N)C(=O)O)C(=O)NCC(=O)O [Darinaparsin] + O=c1cc(-c2cccc3c2Sc2ccccc2S3)oc(N2CCOCC2)c1 [KU55933] (first compound 0.4 µM, partner dose 1 µM)",73.6
6,"C[As](C)SC[C@H](NC(=O)CC[C@H](N)C(=O)O)C(=O)NCC(=O)O [Darinaparsin] + O=C(O)C(=O)Nc1sc2c(c1C(=O)O)CCNC2 [TCS401] (first compound 0.4 µM, partner dose 1.66667 µM)",70.5

# 2 entries drawn at random from those above, as already listed:
row,SMILES,cleaved PARP positive nuclei fraction [%]
3,"O=C(Nc1ccccc1)c1cc([N+](=O)[O-])ccc1Cl + O=C(Oc1ccc([N+](=O)[O-])cc1)N1CCC(C(O)(c2ccc3c(c2)OCO3)c2ccc3c(c2)OCO3)CC1 [JZL184] (first compound 2 µM, partner dose 1 µM)",122
5,"C[As](C)SC[C@H](NC(=O)CC[C@H](N)C(=O)O)C(=O)NCC(=O)O [Darinaparsin] + O=c1cc(-c2cccc3c2Sc2ccccc2S3)oc(N2CCOCC2)c1 [KU55933] (first compound 0.4 µM, partner dose 1 µM)",73.6

# Test system: C32
# Assay: as above
# Settings: library dose: low library concentration; 72 h
row,SMILES,cleaved PARP positive nuclei fraction [%]
1,"Cn1c(Nc2ccc(C(F)(F)F)cc2)nc2cc(Oc3ccnc(-c4ncc(C(F)(F)F)[nH]4)c3)ccc21 + O=C(Oc1ccc([N+](=O)[O-])cc1)N1CCC(C(O)(c2ccc3c(c2)OCO3)c2ccc3c(c2)OCO3)CC1 [JZL184] (first compound 0.08 µM, partner dose 1 µM)",57.1
2,"C/C(O)=C(\C#N)C(=O)Nc1cc(Br)ccc1Br + COc1cc(N2CCC(N3CCN(C)CC3)CC2)ccc1Nc1ncc(Cl)c(Nc2ccccc2S(=O)(=O)C(C)C)n1 [NVP-TAE684] (first compound 2 µM, partner dose 0.08 µM)",76.8
3,"Cc1cc(SCc2sc(-c3ccc(C(F)(F)F)c(F)c3)nc2C)ccc1OCC(=O)O + Cc1cc([N+](=O)[O-])ccc1NS(=O)(=O)c1cc(Cl)ccc1Cl [FH535] (first compound 2 µM, partner dose 1 µM)",35
4,"C[As](C)SC[C@H](NC(=O)CC[C@H](N)C(=O)O)C(=O)NCC(=O)O [Darinaparsin] + O=S(=O)(c1ccccc1)N(CC(F)(F)F)c1ccc(C(O)(C(F)(F)F)C(F)(F)F)cc1 [T0901317] (first compound 0.4 µM, partner dose 1.4 µM)",150
5,"Cc1cc(SCc2sc(-c3ccc(C(F)(F)F)c(F)c3)nc2C)ccc1OCC(=O)O + Oc1nc(-c2ccc(C(F)(F)F)cc2)nc2c1CSCC2 [XAV939] (first compound 2 µM, partner dose 2 µM)",162
6,"CCc1ccc(CCOc2ccc(CC3SC(=O)NC3=O)cc2)nc1 (centres undefined) [pioglitazone] + Cc1cc(SCc2sc(-c3ccc(C(F)(F)F)c(F)c3)nc2C)ccc1OCC(=O)O [GW0742] (first compound 2 µM, partner dose 2 µM)",189
7,"Cc1cc(N2CCOCC2)cc2[nH]c(-c3c(NC[C@@H](O)c4cccc(Cl)c4)cc[nH]c3=O)nc12 + O=C(Oc1ccc([N+](=O)[O-])cc1)N1CCC(C(O)(c2ccc3c(c2)OCO3)c2ccc3c(c2)OCO3)CC1 [JZL184] (first compound 0.2 µM, partner dose 1 µM)",66.9
8,"C[As](C)SC[C@H](NC(=O)CC[C@H](N)C(=O)O)C(=O)NCC(=O)O [Darinaparsin] + O=C(Oc1ccc([N+](=O)[O-])cc1)N1CCC(C(O)(c2ccc3c(c2)OCO3)c2ccc3c(c2)OCO3)CC1 [JZL184] (first compound 0.4 µM, partner dose 1 µM)",168
